# Experimental data reported in the supplement of paper PMC10849652.
# Protein sequences, listed by entry. Tags and fused reporters are not part of them. Lines headed by an entry give the natural chain unless they say otherwise; changes in a name come on top.
# UniProt Q15427: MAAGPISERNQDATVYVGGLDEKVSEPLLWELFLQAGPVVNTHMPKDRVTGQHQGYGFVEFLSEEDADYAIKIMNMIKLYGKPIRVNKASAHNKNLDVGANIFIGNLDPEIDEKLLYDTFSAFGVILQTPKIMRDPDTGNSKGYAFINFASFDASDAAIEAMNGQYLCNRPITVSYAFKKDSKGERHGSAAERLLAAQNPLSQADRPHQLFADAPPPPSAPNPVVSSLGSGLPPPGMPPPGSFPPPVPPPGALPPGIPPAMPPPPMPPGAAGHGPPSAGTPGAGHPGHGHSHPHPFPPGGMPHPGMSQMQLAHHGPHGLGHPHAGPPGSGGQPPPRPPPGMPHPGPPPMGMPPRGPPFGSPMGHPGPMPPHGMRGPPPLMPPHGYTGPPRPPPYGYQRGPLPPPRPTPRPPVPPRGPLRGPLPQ
# UniProt Q8N6T7, whole entry, looked up: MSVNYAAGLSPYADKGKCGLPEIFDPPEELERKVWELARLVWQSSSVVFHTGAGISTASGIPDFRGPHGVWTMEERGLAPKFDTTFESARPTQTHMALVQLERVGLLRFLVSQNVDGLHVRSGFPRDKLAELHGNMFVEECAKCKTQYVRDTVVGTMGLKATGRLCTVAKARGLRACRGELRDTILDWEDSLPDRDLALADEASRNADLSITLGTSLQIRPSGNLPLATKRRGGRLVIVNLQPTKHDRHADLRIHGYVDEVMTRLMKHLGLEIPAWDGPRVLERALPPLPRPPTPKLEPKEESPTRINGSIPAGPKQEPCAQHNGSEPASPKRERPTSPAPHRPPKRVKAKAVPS
# UniProt Q15428: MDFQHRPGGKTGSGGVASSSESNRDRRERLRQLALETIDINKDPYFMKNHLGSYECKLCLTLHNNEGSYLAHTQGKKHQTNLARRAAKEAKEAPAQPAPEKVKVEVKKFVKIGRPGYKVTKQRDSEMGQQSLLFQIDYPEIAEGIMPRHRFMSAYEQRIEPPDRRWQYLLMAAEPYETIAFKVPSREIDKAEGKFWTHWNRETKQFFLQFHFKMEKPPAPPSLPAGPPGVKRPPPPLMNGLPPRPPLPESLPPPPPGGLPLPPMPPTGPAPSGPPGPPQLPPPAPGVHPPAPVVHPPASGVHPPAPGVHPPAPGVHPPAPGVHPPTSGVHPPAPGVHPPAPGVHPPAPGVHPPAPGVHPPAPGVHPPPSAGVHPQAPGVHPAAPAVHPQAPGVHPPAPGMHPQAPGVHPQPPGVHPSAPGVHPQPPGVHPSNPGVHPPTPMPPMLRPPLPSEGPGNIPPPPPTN
# UniProt Q96BI1: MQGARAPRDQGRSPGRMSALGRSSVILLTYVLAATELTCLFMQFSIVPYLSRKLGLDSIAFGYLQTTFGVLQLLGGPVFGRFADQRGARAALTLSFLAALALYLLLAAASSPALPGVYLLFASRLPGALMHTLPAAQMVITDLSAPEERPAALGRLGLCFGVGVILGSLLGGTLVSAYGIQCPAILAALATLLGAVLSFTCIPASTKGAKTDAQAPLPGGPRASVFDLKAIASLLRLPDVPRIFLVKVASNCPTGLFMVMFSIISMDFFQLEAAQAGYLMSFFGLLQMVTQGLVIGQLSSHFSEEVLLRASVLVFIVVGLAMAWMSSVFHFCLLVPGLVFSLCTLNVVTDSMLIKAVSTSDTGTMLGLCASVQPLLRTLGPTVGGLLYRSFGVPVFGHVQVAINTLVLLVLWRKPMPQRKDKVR
# UniProt Q8N196: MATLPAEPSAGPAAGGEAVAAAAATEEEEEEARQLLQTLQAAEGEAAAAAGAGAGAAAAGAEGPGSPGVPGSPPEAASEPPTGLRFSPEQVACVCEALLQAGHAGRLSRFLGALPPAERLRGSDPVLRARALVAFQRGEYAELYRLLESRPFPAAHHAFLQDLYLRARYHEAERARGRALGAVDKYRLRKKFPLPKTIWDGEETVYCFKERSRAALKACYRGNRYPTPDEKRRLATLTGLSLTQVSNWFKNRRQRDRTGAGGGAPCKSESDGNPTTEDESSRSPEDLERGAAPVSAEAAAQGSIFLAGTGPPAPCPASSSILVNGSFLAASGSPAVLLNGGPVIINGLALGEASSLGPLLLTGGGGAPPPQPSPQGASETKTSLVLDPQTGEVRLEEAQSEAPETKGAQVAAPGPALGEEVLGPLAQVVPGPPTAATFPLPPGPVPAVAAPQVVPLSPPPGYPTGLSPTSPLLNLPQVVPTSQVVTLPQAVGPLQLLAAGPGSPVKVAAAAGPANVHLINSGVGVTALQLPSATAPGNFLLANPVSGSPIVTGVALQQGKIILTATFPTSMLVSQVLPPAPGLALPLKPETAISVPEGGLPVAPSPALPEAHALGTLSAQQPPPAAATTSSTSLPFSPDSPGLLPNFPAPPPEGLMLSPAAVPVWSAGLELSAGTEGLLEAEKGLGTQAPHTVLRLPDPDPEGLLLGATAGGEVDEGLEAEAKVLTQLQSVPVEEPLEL
# UniProt Q86VZ5: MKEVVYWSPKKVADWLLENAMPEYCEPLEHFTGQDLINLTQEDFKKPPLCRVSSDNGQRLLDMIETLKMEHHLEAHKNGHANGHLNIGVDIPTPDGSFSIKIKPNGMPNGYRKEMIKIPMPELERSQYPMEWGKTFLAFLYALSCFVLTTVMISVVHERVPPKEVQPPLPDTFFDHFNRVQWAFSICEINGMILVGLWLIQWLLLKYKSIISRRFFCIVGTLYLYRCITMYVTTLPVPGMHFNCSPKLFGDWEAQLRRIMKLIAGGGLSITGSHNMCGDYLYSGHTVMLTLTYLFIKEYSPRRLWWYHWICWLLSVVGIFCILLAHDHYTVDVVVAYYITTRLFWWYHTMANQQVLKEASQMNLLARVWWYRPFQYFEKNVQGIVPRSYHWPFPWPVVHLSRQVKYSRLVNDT
# UniProt Q15464: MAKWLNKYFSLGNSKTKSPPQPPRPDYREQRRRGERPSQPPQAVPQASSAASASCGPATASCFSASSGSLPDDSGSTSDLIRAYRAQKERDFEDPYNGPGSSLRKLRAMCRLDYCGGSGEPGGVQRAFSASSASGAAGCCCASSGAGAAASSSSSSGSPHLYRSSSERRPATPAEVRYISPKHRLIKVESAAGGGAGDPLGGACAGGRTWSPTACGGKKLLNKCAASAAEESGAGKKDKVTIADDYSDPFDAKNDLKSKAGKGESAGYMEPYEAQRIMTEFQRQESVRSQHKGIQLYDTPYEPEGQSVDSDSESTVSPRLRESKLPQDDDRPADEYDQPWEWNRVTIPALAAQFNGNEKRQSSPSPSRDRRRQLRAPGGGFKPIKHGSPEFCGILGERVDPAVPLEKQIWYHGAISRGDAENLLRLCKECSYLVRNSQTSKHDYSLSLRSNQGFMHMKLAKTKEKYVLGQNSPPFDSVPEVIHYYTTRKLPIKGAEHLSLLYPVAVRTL
# UniProt O43255: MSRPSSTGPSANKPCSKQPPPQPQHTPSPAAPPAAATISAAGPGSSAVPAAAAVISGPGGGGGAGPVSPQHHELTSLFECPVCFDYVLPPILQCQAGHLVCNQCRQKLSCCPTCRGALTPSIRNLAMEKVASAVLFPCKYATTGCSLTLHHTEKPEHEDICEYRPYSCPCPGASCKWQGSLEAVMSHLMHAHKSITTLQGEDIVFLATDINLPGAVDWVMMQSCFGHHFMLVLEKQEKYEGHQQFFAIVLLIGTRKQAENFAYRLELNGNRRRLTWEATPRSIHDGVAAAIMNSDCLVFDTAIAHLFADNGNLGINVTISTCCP
# UniProt Q13309, whole entry, looked up: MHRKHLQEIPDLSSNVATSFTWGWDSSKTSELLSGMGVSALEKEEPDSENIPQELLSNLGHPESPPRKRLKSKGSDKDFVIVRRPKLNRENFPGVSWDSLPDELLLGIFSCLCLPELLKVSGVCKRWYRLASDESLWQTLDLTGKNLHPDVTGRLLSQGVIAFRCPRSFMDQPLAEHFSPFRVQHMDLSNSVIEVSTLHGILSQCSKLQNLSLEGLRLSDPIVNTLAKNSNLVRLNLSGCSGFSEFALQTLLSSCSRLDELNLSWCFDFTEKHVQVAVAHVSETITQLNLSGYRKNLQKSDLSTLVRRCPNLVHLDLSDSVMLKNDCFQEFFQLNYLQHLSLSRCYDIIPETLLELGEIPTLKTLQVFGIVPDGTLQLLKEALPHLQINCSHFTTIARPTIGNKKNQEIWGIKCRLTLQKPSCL
# UniProt Q9H0F6: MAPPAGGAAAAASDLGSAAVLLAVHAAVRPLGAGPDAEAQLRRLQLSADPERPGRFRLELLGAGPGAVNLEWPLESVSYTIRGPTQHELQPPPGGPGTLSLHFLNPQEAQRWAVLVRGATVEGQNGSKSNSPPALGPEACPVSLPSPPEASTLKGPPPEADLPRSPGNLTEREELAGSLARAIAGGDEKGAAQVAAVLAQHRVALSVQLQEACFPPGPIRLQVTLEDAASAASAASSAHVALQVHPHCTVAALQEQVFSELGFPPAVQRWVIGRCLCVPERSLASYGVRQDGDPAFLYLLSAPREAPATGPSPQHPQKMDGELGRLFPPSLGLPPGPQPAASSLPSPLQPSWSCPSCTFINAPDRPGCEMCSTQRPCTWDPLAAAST
# UniProt Q8NC51: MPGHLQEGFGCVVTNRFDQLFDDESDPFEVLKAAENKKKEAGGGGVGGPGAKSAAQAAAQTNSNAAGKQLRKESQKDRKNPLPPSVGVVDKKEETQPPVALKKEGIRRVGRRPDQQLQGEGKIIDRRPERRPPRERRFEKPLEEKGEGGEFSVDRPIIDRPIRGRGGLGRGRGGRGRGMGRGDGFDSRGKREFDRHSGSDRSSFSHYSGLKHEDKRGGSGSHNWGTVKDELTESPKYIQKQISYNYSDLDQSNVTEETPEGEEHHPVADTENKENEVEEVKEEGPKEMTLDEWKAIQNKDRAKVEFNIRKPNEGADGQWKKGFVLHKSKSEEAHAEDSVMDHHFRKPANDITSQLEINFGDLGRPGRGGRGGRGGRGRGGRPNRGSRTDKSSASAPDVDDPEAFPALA
# UniProt Q8TD22: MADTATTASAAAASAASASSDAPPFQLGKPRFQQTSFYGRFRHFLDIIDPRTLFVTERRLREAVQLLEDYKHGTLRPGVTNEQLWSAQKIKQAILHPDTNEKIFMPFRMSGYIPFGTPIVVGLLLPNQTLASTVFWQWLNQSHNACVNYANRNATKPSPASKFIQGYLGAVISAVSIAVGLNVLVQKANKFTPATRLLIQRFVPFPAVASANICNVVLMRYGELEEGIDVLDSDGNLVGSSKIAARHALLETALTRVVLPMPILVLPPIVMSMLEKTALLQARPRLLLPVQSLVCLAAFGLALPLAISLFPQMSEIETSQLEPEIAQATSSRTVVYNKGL
# UniProt O60779: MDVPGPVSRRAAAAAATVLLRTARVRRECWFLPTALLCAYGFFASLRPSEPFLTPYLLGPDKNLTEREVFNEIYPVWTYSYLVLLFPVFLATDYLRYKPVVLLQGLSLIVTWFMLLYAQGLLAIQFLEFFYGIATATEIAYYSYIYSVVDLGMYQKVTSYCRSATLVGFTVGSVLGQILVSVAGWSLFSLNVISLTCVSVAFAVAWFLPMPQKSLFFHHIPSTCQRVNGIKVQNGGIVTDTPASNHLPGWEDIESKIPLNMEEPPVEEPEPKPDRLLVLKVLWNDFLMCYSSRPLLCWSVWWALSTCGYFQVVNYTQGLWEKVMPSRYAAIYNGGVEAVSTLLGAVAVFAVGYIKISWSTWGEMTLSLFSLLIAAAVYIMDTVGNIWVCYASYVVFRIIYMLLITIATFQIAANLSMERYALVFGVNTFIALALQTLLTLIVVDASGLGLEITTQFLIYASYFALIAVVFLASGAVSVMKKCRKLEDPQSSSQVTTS
# UniProt Q587I9: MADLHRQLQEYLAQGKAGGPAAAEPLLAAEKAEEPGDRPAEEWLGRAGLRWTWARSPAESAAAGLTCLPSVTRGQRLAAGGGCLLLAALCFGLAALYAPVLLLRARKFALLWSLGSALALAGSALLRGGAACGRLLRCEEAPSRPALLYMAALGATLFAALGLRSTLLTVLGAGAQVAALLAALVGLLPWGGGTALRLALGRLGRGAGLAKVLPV
# UniProt Q15637: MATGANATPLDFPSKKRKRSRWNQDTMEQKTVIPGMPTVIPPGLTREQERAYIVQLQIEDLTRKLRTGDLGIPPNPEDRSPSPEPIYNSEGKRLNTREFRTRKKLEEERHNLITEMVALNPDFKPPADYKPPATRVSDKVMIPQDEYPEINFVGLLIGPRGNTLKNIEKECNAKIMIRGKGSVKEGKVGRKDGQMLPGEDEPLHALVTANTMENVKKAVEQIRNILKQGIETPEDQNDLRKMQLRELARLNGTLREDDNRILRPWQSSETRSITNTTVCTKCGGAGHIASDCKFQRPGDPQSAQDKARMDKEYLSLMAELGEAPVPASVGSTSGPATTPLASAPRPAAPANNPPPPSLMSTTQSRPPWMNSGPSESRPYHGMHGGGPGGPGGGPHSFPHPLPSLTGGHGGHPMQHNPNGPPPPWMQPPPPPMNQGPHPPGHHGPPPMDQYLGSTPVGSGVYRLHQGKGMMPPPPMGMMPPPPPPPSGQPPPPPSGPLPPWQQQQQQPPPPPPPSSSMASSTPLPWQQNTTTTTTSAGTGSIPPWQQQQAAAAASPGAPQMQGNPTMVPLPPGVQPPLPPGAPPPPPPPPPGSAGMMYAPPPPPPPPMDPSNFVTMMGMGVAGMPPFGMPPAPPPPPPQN
# The other results are listed elsewhere or left out.
# Assays:
# Experiment in all cases: log2 fold change, soluble protein after heating vs DMSO (PISA); higher = thermal stabilisation; K562 lysate, 10 uM; active = over 0.2 and 3.5 SD of the protein, either way, in both replicates (recomputed)
# lapatinib = compound: CS(=O)(=O)CCNCc1ccc(-c2ccc3ncnc(Nc4ccc(OCc5cccc(F)c5)c(Cl)c4)c3c2)o1 [lapatinib]
# Procedure, shortened: (§1)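 Log-two fold change in thermal stability relative to solvent controls is reported from duplicates. For each sample, crude K562 extract from dounce-homogenised pellets in PBS pH 7.4 with 1 mM MgCl2, at 1 mg/mL protein, was treated with 10 μM compound for 30 min. Aliquots heated for 3 min across 48°C-58°C were pooled, brought to 0.5% NP-40 at 4°C and cleared at 21,000xg for 90 min. The supernatant was quantified by TMTpro 16plex LC-MS/MS with channel sums equalised.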
# pictilisib = compound: CS(=O)(=O)N1CCN(Cc2cc3nc(-c4cccc5[nH]ncc45)nc(N4CCOCC4)c3s2)CC1 [pictilisib]
# Procedure, shortened: as §1
# crizotinib = compound: C[C@@H](Oc1cc(-c2cnn(C3CCNCC3)c2)cnc1N)c1c(Cl)ccc(F)c1Cl [crizotinib]
# Procedure, shortened: as §1
# [1] = compound: C[C@H](C1=CC=C(C=C1)C(=O)NC2=C3C=CNC3=NC=C2)N
# Procedure, shortened: as §1
# duvelisib = compound: C[C@H](Nc1ncnc2nc[nH]c12)c1cc2cccc(Cl)c2c(=O)n1-c1ccccc1 [duvelisib]
# Procedure, shortened: as §1
# gandotinib = compound: Cc1cc(Nc2cc(CN3CCOCC3)c3nc(C)c(Cc4ccc(Cl)cc4F)n3n2)n[nH]1 [gandotinib]
# Procedure, shortened: as §1
# tozasertib = compound: Cc1cc(Nc2cc(N3CCN(C)CC3)nc(Sc3ccc(NC(=O)C4CC4)cc3)n2)n[nH]1 [tozasertib]
# Procedure, shortened: as §1
# doramapimod = compound: Cc1ccc(-n2nc(C(C)(C)C)cc2NC(=O)Nc2ccc(OCCN3CCOCC3)c3ccccc23)cc1 [doramapimod]
# Procedure, shortened: as §1
# bafetinib = compound: Cc1ccc(NC(=O)c2ccc(CN3CC[C@H](N(C)C)C3)c(C(F)(F)F)c2)cc1Nc1nccc(-c2cncnc2)n1 [bafetinib]
# Procedure, shortened: as §1
# [2] = compound: Cc1cccc(CC(=O)N2CCc3c2ccc(-c2cn(C)c4ncnc(N)c24)c3F)n1
# Procedure, shortened: as §1
Target,log2 fold change (lapatinib),log2 fold change (pictilisib),log2 fold change (crizotinib),log2 fold change [1],log2 fold change (duvelisib),log2 fold change (gandotinib),log2 fold change (tozasertib),log2 fold change (doramapimod),log2 fold change (bafetinib),log2 fold change [2]
SF3B4 (UniProt Q15427),inactive: 0.084,inactive: -0.008,inactive: 0,inactive: -0.086,inactive: -0.006,inactive: 0.081,inactive: -0.056,inactive: -0.004,inactive: -0.014,inactive: 0.085
SHC1 isoform 6 (UniProt P29353),inactive: 0.019,inactive: -0.057,inactive: 0.001,active: 0.577,inactive: 0.005,inactive: -0.106,inactive: 0.005,inactive: 0.065,inactive: -0.034,inactive: -0.175
SIRT6 (UniProt Q8N6T7),inactive: -0.173,inactive: -0.091,inactive: -0.038,inactive: -0.029,inactive: 0.041,inactive: -0.004,inactive: -0.021,inactive: 0.159,inactive: -0.013,inactive: 0.071
SF3A2 (UniProt Q15428),inactive: 0.035,inactive: 0.021,inactive: -0.006,inactive: -0.124,inactive: -0.006,inactive: -0.003,inactive: -0.007,inactive: 0.002,inactive: 0.027,inactive: 0.044
SIPA1L1 (UniProt O43166),inactive: 0.008,inactive: -0.021,inactive: -0.039,inactive: -0.097,,inactive: 0.095,inactive: -0.011,inactive: -0.363,inactive: -0.014,inactive: 0.042
SLC22A18 (UniProt Q96BI1),inactive: 0.072,inactive: 0.026,inactive: -0.064,inactive: -0.094,,inactive: 0.147,inactive: -0.004,inactive: 0.032,inactive: -0.001,inactive: 0.033
SIX4 (UniProt Q9UIU6),inactive: 0.025,inactive: -0.023,,inactive: -0.002,,inactive: 0.059,inactive: 0.287,,inactive: -0.097,inactive: 0.014
SF3B2 (UniProt E9PJ04),inactive: -0.075,inactive: -0.017,,inactive: 0.082,,inactive: -0.063,,,inactive: -0.166,inactive: 0
SIX5 (UniProt Q8N196),inactive: -0.105,inactive: 0.015,inactive: -0.075,inactive: 0.22,inactive: 0.039,active: -0.48,,inactive: 0.143,inactive: -0.009,inactive: -0.306
SGMS1 (UniProt Q86VZ5),inactive: -0.097,,inactive: 0.067,inactive: -0.065,inactive: 0.003,inactive: 0.037,inactive: 0.122,inactive: 0.069,,inactive: 0.055
SHB (UniProt Q15464),inactive: -0.07,,inactive: -0.044,inactive: -0.305,inactive: -0.034,inactive: 0.186,,inactive: 0.028,,inactive: -0.129
SIAH2 (UniProt O43255),inactive: -0.006,inactive: 0.035,,inactive: -0.11,,inactive: 0.027,,,inactive: 0.007,inactive: 0.02
SLC12A9 (UniProt Q9BXP2),inactive: 0.031,inactive: -0.081,inactive: -0.039,inactive: -0.045,inactive: -0.044,inactive: -0.034,,inactive: -0.011,inactive: -0.075,inactive: 0.036
SKP2 (UniProt Q13309),inactive: -0.275,,inactive: -0.159,inactive: -0.098,inactive: -0.024,inactive: -0.075,inactive: -0.096,inactive: -0.024,,inactive: 0.104
SHARPIN (UniProt Q9H0F6),inactive: 0.048,,inactive: 0.089,,inactive: 0.036,,inactive: 0.011,inactive: -0.075,,
SERBP1 isoform 3 (UniProt Q8NC51),inactive: -0.028,inactive: 0.006,inactive: 0.068,,inactive: 0.041,,inactive: -0.027,inactive: 0.103,inactive: -0.003,
SF1 (UniProt H7C0N4),inactive: 0.131,,inactive: 0.01,inactive: 0.17,,inactive: 0.132,inactive: 0.064,inactive: 0.058,,inactive: 0.036
SFXN5 (UniProt Q8TD22),inactive: -0.03,,inactive: -0.04,,inactive: 0.054,,inactive: -0.032,inactive: -0.003,,
SLC19A2 (UniProt O60779),inactive: -0.163,inactive: -0.08,,inactive: 0.024,inactive: 0.08,inactive: 0.072,inactive: -0.061,,inactive: -0.332,inactive: -0.053
SFT2D3 (UniProt Q587I9),inactive: -0.088,,inactive: -0.098,inactive: -0.282,inactive: 0.003,inactive: 0.014,inactive: 0.024,inactive: -0.006,,inactive: 0.09
SH3BP2 isoform 4 (UniProt P78314),inactive: -0.135,active: -0.41,inactive: -0.021,inactive: 0.01,inactive: 0.053,inactive: -0.02,,inactive: 0.057,inactive: -0.105,inactive: 0.123
SF1 isoform 6 (UniProt Q15637),inactive: 0.08,inactive: -0.012,,inactive: -0.034,inactive: -0.267,inactive: 0.122,inactive: -0.078,,inactive: 0.197,inactive: 0.049
SLC12A6 isoform 2 (UniProt Q9UHW9),inactive: -0.019,,inactive: -0.051,,inactive: -0.023,,inactive: 0.068,inactive: 0.054,,
SERPINA12 (UniProt Q8IW75),inactive: -0.225,inactive: 0.328,inactive: 0.009,,inactive: 0.073,,,inactive: -0.171,inactive: -0.058,

# Exported as tab-separated lines: entries from further up.
Target	log2 fold change (lapatinib)	log2 fold change (pictilisib)	log2 fold change (crizotinib)	log2 fold change [1]	log2 fold change (duvelisib)	log2 fold change (gandotinib)	log2 fold change (tozasertib)	log2 fold change (doramapimod)	log2 fold change (bafetinib)	log2 fold change [2]
SFXN5 (UniProt Q8TD22)	inactive: -0.03		inactive: -0.04		inactive: 0.054		inactive: -0.032	inactive: -0.003		
SLC19A2 (UniProt O60779)	inactive: -0.163	inactive: -0.08		inactive: 0.024	inactive: 0.08	inactive: 0.072	inactive: -0.061		inactive: -0.332	inactive: -0.053
